Values from PubChem BioAssay AID1224830 (NIAID, 2016)
Purpose: 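Host factors that control LPS-induced TNF expression in human macrophages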 (primary screen). Cells: human THP-1 monocytic leukaemia cells, TNF dual-luciferase reporter clone, PMA-differentiated to macrophage-like cells. Reagents: siRNA pool against human genes, 50 nM. Timing: LPS for 4 h, given about 3 days after siRNA transfection. Conditions: bacterial LPS (TLR4 ligand), 10 ng/ml. Read-out: 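TNF firefly reporter luminescence divided by renilla, normalised to the plate median, then turned into a robust z-score for each replicate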. Direction: TNF reporter robust z-score: higher = stronger TNF reporter response to LPS. Hit rule: 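Each well counts as active if its z-score is over 2.8 or under -1.5; controls are left without a call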.
The deposit covers about 18,000 reagents; this is an unselected part. About 2,900 of them (16%) count as active. 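Calls are made per well; low scores hint the gene aids the LPS response, high scores that it dampens it.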 Unmarked entries are inactive. Repeated entries: four replicate wells of each siRNA pool.

no.	gene	PubChem SID	TNF reporter robust z-score
1	CPB1	SID315448063	0.22
2	CPB1	SID315448063	-0.41
3	CPB1	SID315448063	-0.23
4	CPB1	SID315448063	0.21
5	CHST11	SID315456330	0.96
6	CHST11	SID315456330	1.91
7	CHST11	SID315456330	0.89
8	CHST11	SID315456330	1.6
9	LMTK2	SID315454819	-0.26
10	LMTK2	SID315454819	-0.75
11	LMTK2	SID315454819	-1.48
12	LMTK2	SID315454819	-0.24
13	CACNA1H	SID315452924	0.06
14	CACNA1H	SID315452924	-0.15
15	CACNA1H	SID315452924	1.51
16	CACNA1H	SID315452924	1.06
17	ZNF454	SID315463872	0.87
18	ZNF454	SID315463872	1.86
19	ZNF454	SID315463872	0.31
20	ZNF454	SID315463872	0.42
21	AMY1C	SID315447308	0.8
22	AMY1C	SID315447308	0.34
23	AMY1C	SID315447308	1.28
24	AMY1C	SID315447308	1.07
25	EFCAB14	SID315453586	-0.7
26	EFCAB14	SID315453586	-0.75
27	EFCAB14	SID315453586	-0.29
28	EFCAB14	SID315453586	-0.71
29	DENND1B	SID315457059	1.04
30	DENND1B	SID315457059	1.47
31	DENND1B	SID315457059	0.51
32	DENND1B	SID315457059	-0.43
33	DENND1B	SID315462787	0.96
34	DENND1B	SID315462787	0.01
35	DENND1B	SID315462787	0.37
36	DENND1B	SID315462787	-0.24
37	THUMPD3	SID315455552	-0.12
38	THUMPD3	SID315455552	-0.14
39	THUMPD3	SID315455552	-0.19
40	THUMPD3	SID315455552	0.32
41	SLC4A10	SID315458348	0.54
42	SLC4A10	SID315458348	1.16
43	SLC4A10	SID315458348	1.54
44	SLC4A10	SID315458348	1.92
45	MFAP5	SID315452390	1.05
46	MFAP5	SID315452390	1.74
47	MFAP5	SID315452390	0.89
48	MFAP5	SID315452390	0.09
49	RASGEF1B	SID315462551	1.51
50	RASGEF1B	SID315462551	0.46
51	RASGEF1B	SID315462551	0.72
52	RASGEF1B	SID315462551	6.55 (active)
53	POC5	SID315461967	2.34
54	POC5	SID315461967	2.15
55	POC5	SID315461967	0.07
56	POC5	SID315461967	0.04
57	SIX2	SID315454324	-1.1
58	SIX2	SID315454324	-1.2
59	SIX2	SID315454324	-1.24
60	SIX2	SID315454324	-0.85
61	GGCT	SID315459158	0.42
62	GGCT	SID315459158	0.63
63	GGCT	SID315459158	0.75
64	GGCT	SID315459158	0.94
65	GPR137	SID315458122	-0.11
66	GPR137	SID315458122	0.03
67	GPR137	SID315458122	-1.2
68	GPR137	SID315458122	-0.52
69	GPR32	SID315449007	-1.06
70	GPR32	SID315449007	0.91
71	GPR32	SID315449007	-0.22
72	GPR32	SID315449007	1.48
73	HINT2	SID315460461	0.09
74	HINT2	SID315460461	0.31
75	HINT2	SID315460461	0.14
76	HINT2	SID315460461	0.9
77	AMY2B	SID315447310	-0.37
78	AMY2B	SID315447310	-0.14
79	AMY2B	SID315447310	-0.09
80	AMY2B	SID315447310	0.14
81	TM6SF1	SID315456911	-0.43
82	TM6SF1	SID315456911	0.44
83	TM6SF1	SID315456911	0.93
84	TM6SF1	SID315456911	0.81
85	MPV17L2	SID315460497	0.87
86	MPV17L2	SID315460497	-0.09
87	MPV17L2	SID315460497	-0.02
88	MPV17L2	SID315460497	-0.23
89	FGF5	SID315448676	0.57
90	FGF5	SID315448676	0.23
91	FGF5	SID315448676	0.67
92	FGF5	SID315448676	1.74
93	SLCO1A2	SID315451512	1.42
94	SLCO1A2	SID315451512	0.57
95	SLCO1A2	SID315451512	1.3
96	SLCO1A2	SID315451512	1.53
97	BBS4	SID315447517	-0.02
98	BBS4	SID315447517	1.79
99	BBS4	SID315447517	0.97
100	BBS4	SID315447517	1.69
101	S100B	SID315451281	0.75
102	S100B	SID315451281	-0.04
103	S100B	SID315451281	0.15
104	S100B	SID315451281	0.29
105	AARS1	SID315447124	-0.15
106	AARS1	SID315447124	1.04
107	AARS1	SID315447124	0.5
108	AARS1	SID315447124	0.77
109	IGF2BP2	SID315454263	-0.51
110	IGF2BP2	SID315454263	0.1
111	IGF2BP2	SID315454263	0.01
112	IGF2BP2	SID315454263	0.03
113	ASPM	SID315463576	-0.76
114	ASPM	SID315463576	-0.1
115	ASPM	SID315463576	0.35
116	ASPM	SID315463576	-0.63
117	H2BC14	SID315452494	-0.68
118	H2BC14	SID315452494	-0.85
119	H2BC14	SID315452494	-0.98
120	H2BC14	SID315452494	-0.92
121	NTPCR	SID315460296	-0.65
122	NTPCR	SID315460296	-0.7
123	NTPCR	SID315460296	-0.45
124	NTPCR	SID315460296	-1.14
125	TM2D1	SID315460139	-0.59
126	TM2D1	SID315460139	-0.73
127	TM2D1	SID315460139	-1.05
128	TM2D1	SID315460139	-0.35
129	SEC62	SID315451895	-0.58
130	SEC62	SID315451895	-0.52
131	SEC62	SID315451895	-0.34
132	SEC62	SID315451895	-0.45
133	CRYGS	SID315448113	1.19
134	CRYGS	SID315448113	0.14
135	CRYGS	SID315448113	0.07
136	CRYGS	SID315448113	0.94
137	OR13C8	SID315462052	-0.78
138	OR13C8	SID315462052	-1.55 (active)
139	OR13C8	SID315462052	-1.68 (active)
140	OR13C8	SID315462052	-1.03
